Results as given in article PMC11633972.
No constants are given. Whether binding was seen depends on the method and setting. In cells and extracts the contact can be indirect. Here binding means that the protein was enriched with, or labelled near, the bait; the list need not be complete.

Sequences of proteins named here, by UniProt entry; tags and fusion partners are left off.
UniProt P69596: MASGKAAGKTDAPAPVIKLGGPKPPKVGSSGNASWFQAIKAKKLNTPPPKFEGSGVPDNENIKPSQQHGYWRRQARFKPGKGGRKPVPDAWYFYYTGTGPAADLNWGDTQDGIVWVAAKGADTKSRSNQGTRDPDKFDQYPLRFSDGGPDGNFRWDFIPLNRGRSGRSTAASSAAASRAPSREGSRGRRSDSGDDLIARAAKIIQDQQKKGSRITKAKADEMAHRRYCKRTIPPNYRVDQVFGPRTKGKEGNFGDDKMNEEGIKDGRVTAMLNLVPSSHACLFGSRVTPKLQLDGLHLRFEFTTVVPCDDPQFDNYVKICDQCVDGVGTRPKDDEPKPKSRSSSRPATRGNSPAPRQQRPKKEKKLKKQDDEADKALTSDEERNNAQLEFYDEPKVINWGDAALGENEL

Molecular target: Flag-tagged IBV N protein (expressed in HEK-293T cells) (infectious bronchitis virus (IBV), Beaudette strain) (UniProt P69596)
Experiment: affinity purification with mass spectrometry

B1: RAE1 (mRNA export factor) (protein, UniProt P78406 1-368)
chain: MSLFGTTSGFGTSGTSMFGSATTDNHNPMKDIEVTSSPDDSIGCLSFSPPTLPGNFLIAGSWANDVRCWEVQDSGQTIPKAQQMHTGPVLDVCWSDDGSKVFTASCDKTAKMWDLSSNQAIQIAQHDAPVKTIHWIKAPNYSCVMTGSWDKTLKFWDTRSSNPMMVLQLPERCYCADVIYPMAVVATAERGLIVYQLENQPSEFRRIESPLKHQHRCVAIFKDKQNKPTGFALGSIEGRVAIHYINPPNPAKDNFTFKCHRSNGTNTSAPQDIYAVNGIAFHPVHGTLATVGSDGRFSFWDKDARTKLKTSEQLDQPISACCFNHNGNIFAYASSYDWSKGHEFYNPQKKNYIFLRNAAEELKPRNKK
- binding: binds
